Data: PubChem BioAssay AID330 (DTP/NCI, 2004)
The list is a part of this screen's results and no random one: it gathers tests that were run many times, whatever their T/C, doses with no T/C, and many T/C values between a quarter and a half above the control. Other doses and runs of a compound stand elsewhere. T/C is the treated group as % of the vehicle group. Some doses have a count of surviving animals in place of a T/C: the source files T/C as zero there, which appears to mark a toxic dose or a test without result, not a measured value. Some survivor counts are full or nearly so, which does not show that the dose was tolerated: survival well below the control is almost never listed, so the zero probably covers shortened survival too. Counts of survivors are from the toxicity check (mostly the fifth day) where no day follows; animals may have died later. Schedules are NCI's codes, taken here to give the interval after Q, in days (D) or hours (H), and the number of doses after X. Some entries hold several experiments; the results are listed from low to high. Marks such as (2×) give the number of equal values in this list. For survival time, the PubChem record calls one and a half times the control and up active, and a quarter to a half above the control has no call in these data; cut-offs in other NCI protocols can differ. Some T/C values are followed by the survivors on the day toxicity was checked, most often the fifth; without a count, all were alive then.

Tested on: P388 leukemia ip, CD2F1 mice, survival T/C
Assay: NCI In Vivo Anticancer Drug Screen. Data for tumor model P388 Leukemia (intraperitoneal) in CD2F1 (CDF1) mice
Details: T/C endpoint: median survival time, higher T/C = longer survival
[1] = dose: 120.0 mg/kg/injection, schedule: Q01DX005 (ip), vehicle: Klucel (hydroxypropylcellulose) (HPC)
[2] = dose: 12.5 mg/kg/injection, schedule: Q01DX005 (ip), vehicle: saline
[3] = dose: 25.0 mg/kg/injection, schedule: Q01DX005 (ip), vehicle: saline
[4] = dose: 50.0 mg/kg/injection, schedule: Q01DX005 (ip), vehicle: saline
[5] = dose: 100.0 mg/kg/injection, schedule: Q01DX005 (ip), vehicle: saline
[6] = dose: 200.0 mg/kg/injection, schedule: Q01DX005 (ip), vehicle: saline
[7] = dose: 6.25 mg/kg/injection, schedule: Q01DX009 (ip), vehicle: Klucel (hydroxypropylcellulose) (HPC)
[8] = dose: 25.0 mg/kg/injection, schedule: Q01DX009 (ip), vehicle: Klucel (hydroxypropylcellulose) (HPC)
[9] = dose: 50.0 mg/kg/injection, schedule: Q01DX009 (ip), vehicle: Klucel (hydroxypropylcellulose) (HPC)
[10] = dose: 100.0 mg/kg/injection, schedule: Q01DX009 (ip), vehicle: Klucel (hydroxypropylcellulose) (HPC)
[11] = dose: 200.0 mg/kg/injection, schedule: Q01DX009 (ip), vehicle: Klucel (hydroxypropylcellulose) (HPC)

CC(C)CNC(=O)OCc1c(COC(=O)NCC(C)C)c(-c2ccc(Cl)c(Cl)c2)n2c1CCC2
T/C (dose: 12.5 mg/kg/injection, schedule: Q01DX009 (ip), vehicle: distilled water + Tween-80, evaluated on day 30): 148 % of control
T/C (dose: 12.5 mg/kg/injection, schedule: Q01DX009 (ip), vehicle: distilled water + Tween-80, evaluated on day 45): 144 % of control
T/C (dose: 100.0 mg/kg/injection, schedule: Q01DX009 (ip), vehicle: distilled water + Tween-80): 143 % of control

N#CC(C#N)=C(C#N)Nc1ccc(F)cc1
survivor count [1]: 0 of 6

OCc1c(Cl)nc2sccn12
survivor count (dose: 200.0 mg/kg/injection, schedule: Q01DX001 (ip), vehicle: Klucel (hydroxypropylcellulose) (HPC)): 1 of 6

[N-]=[N+]=CC(=O)Oc1ccc([N+](=O)[O-])cc1
survivor count (dose: 50.0 mg/kg/injection, schedule: Q01DX009 (ip), vehicle: other): 6 of 6
survivor count (dose: 100.0 mg/kg/injection, schedule: Q01DX009 (ip), vehicle: other): 6 of 6
survivor count (dose: 200.0 mg/kg/injection, schedule: Q01DX009 (ip), vehicle: other): 2 of 6
survivor count (dose: 400.0 mg/kg/injection, schedule: Q01DX009 (ip), vehicle: other): 0 of 6

Cc1ccc(S(=O)(=O)OC2CCC3(C)C(CCC4C3CCC3(C)C(C(C)CCCC(C)C)CCC43)C2)cc1 (configuration not stated)
survivor count (dose: 12.0 mg/kg/injection, schedule: Q01DX005 (ip), vehicle: Klucel (hydroxypropylcellulose) (HPC)): 4 of 6
survivor count (dose: 25.0 mg/kg/injection, schedule: Q01DX005 (ip), vehicle: Klucel (hydroxypropylcellulose) (HPC)): 2 of 6
survivor count (dose: 50.0 mg/kg/injection, schedule: Q01DX005 (ip), vehicle: Klucel (hydroxypropylcellulose) (HPC)): 0 of 6

CS/C(=C/c1ccc2ccccc2[n+]1C)N1CCCC1
survivor count (dose: 3.13 mg/kg/injection, schedule: Q01DX005 (ip), vehicle: saline): 0 of 5
survivor count (dose: 6.25 mg/kg/injection, schedule: Q01DX005 (ip), vehicle: saline): 0 of 6
survivor count [2]: 0 of 6
survivor count [3]: 0 of 6
survivor count [4]: 0 of 6
survivor count [5]: 0 of 6
survivor count [6]: 0 of 6

C=C=C(C)C(c1ccccc1)N(C)C (configuration not stated)
survivor count [6]: 0 of 6

COC(COC(=O)N1CCN(C=O)CC1)C1=C(N2CC2)C(=O)C(C)=C(N2CC2)C1=O (configuration not stated)
T/C (dose: 1.56 mg/kg/injection, schedule: Q01DX005 (ip), vehicle: saline): 146 % of control
survivor count [2]: 4 of 6 and 6 of 6
survivor count [3]: 0 of 6
survivor count [4]: 0 of 6
survivor count [5]: 0 of 6
survivor count [6]: 0 of 6

O=C1/C(=C/c2ccc3c(c2)OCO3)SC(=S)N1c1ccc(Cl)c(Cl)c1
survivor count (dose: 200.0 mg/kg/injection, schedule: Q01DX005 (ip), vehicle: Klucel (hydroxypropylcellulose) (HPC)): 0 of 5

CCCCCCCCC(=O)c1c(OC)oc(/C=N/O)cc1=O
survivor count [7]: 6 of 6
survivor count [8]: 6 of 6
survivor count [9]: 6 of 6
survivor count [10]: 6 of 6
survivor count [11]: 6 of 6

CCC(=O)NC1=C(Cl)C(=O)C(Cl)=C(Cl)C1=O
survivor count (dose: 12.5 mg/kg/injection, schedule: Q01DX009 (ip), vehicle: saline with Tween-80): 1 of 6
survivor count (dose: 50.0 mg/kg/injection, schedule: Q01DX009 (ip), vehicle: saline with Tween-80): 0 of 6
survivor count (dose: 100.0 mg/kg/injection, schedule: Q01DX009 (ip), vehicle: saline with Tween-80): 0 of 6
survivor count (dose: 200.0 mg/kg/injection, schedule: Q01DX009 (ip), vehicle: saline with Tween-80): 0 of 6

CCCC1(c2ccccc2)C(=O)NCNC1=O
T/C (dose: 60.0 mg/kg/injection, schedule: Q01DX005 (ip), vehicle: Klucel (hydroxypropylcellulose) (HPC)): 133 % of control
T/C [1]: 126 % of control

O=NN(CCCl)C(=O)Nc1cc(=O)[nH]c(SCc2ccccc2)n1
T/C (dose: 20.12 mg/kg/injection, schedule: Q04DX002 (ip), vehicle: Klucel (hydroxypropylcellulose) (HPC)): 139 % of control
T/C (dose: 80.5 mg/kg/injection, schedule: Q04DX002 (ip), vehicle: Klucel (hydroxypropylcellulose) (HPC)): 141 % of control

S=C(N/N=C/c1c[nH]c2ccccc12)NC12CC3CC(CC(C3)C1)C2
survivor count (dose: 240.0 mg/kg/injection, schedule: Q01DX005 (ip), vehicle: saline with Tween-80): 6 of 6

CC1CC(Cc2ccccc2)C(=O)CC(C)(C)CC(=O)O1 (configuration not stated)
T/C (dose: 100.0 mg/kg/injection, schedule: Q04DX003 (ip), vehicle: saline): 100, 101, 103, 104 % of control
T/C (dose: 200.0 mg/kg/injection, schedule: Q04DX003 (ip), vehicle: saline): 96, 100, 101 % of control (2×)
T/C (dose: 400.0 mg/kg/injection, schedule: Q04DX003 (ip), vehicle: saline): 97, 105, 106, 125 % of control

COc1ccc2c(=O)c3cc([N+](=O)[O-])ccc3n(C)c2c1
survivor count (dose: 200.0 mg/kg/injection, schedule: Q01DX001 (ip), vehicle: saline with Tween-80): 6 of 6
survivor count (dose: 400.0 mg/kg/injection, schedule: Q01DX001 (ip), vehicle: saline with Tween-80): 6 of 6

CC(C)(C)C1=CC(=C/C=C/c2cc(C(C)(C)C)[o+]c(C(C)(C)C)c2)C=C(C(C)(C)C)O1
T/C [7]: 127 % of control
T/C (dose: 12.5 mg/kg/injection, schedule: Q01DX009 (ip), vehicle: Klucel (hydroxypropylcellulose) (HPC)): 127 % of control
T/C [8]: 127 % of control [5 of 6 alive]
survivor count [9]: 0 of 6 and 4 of 6
survivor count [10]: 0 of 6
survivor count [11]: 0 of 6

CC(=O)OCC(=O)[C@@]1(O)CC[C@H]2[C@@H]3CCC4=CC(=O)CC[C@]4(C)[C@@]3(Cl)[C@@H](O)C[C@@]21C
T/C (dose: 100.0 mg/kg/injection, schedule: Q04DX003 (ip), vehicle: saline with Tween-80): 127 % of control
T/C (dose: 200.0 mg/kg/injection, schedule: Q04DX003 (ip), vehicle: saline with Tween-80): 140 % of control

CCCCCCCCCCCCCCCC[N+](C)(CCO)Cc1cnc[nH]1 (configuration not stated)
T/C (dose: 6.25 mg/kg/injection, schedule: Q01DX009 (ip), vehicle: saline): 139 % of control
T/C (dose: 12.5 mg/kg/injection, schedule: Q01DX009 (ip), vehicle: saline): 129 and 135 % of control
survivor count (dose: 25.0 mg/kg/injection, schedule: Q01DX009 (ip), vehicle: saline): 5 of 6 and 6 of 6
survivor count (dose: 50.0 mg/kg/injection, schedule: Q01DX009 (ip), vehicle: saline): 1 of 6 (2×)
survivor count (dose: 100.0 mg/kg/injection, schedule: Q01DX009 (ip), vehicle: saline): 0 of 6
survivor count (dose: 200.0 mg/kg/injection, schedule: Q01DX009 (ip), vehicle: saline): 0 of 6

CNCCC(Oc1ccc(C(F)(F)F)cc1)c1ccccc1 (configuration not stated)
survivor count (dose: 100.0 mg/kg/injection, schedule: Q04DX002 (ip), vehicle: saline with Tween-80): 6 of 6
survivor count (dose: 200.0 mg/kg/injection, schedule: Q04DX002 (ip), vehicle: saline with Tween-80): 0 of 6
survivor count (dose: 400.0 mg/kg/injection, schedule: Q04DX002 (ip), vehicle: saline with Tween-80): 0 of 6

CCC1(O)CC2CN(CCc3c([nH]c4ccccc34)C(C(=O)OC)(c3cc4c(cc3OC)N(C=O)C3C(O)(C(=O)OC)CC5(CC)C=CCN6CCC43C65)C2)C1 (configuration not stated)
survivor count (dose: 16.0 mg/kg/injection, schedule: Q01DX001 (ip), vehicle: saline): 3 of 5
survivor count (dose: 32.0 mg/kg/injection, schedule: Q01DX001 (ip), vehicle: saline): 0 of 5 and 3 of 5

O=c1c2nccnc2nc2n1CCCS2
survivor count (dose: 400.0 mg/kg/injection, schedule: Q01DX009 (ip), vehicle: Klucel (hydroxypropylcellulose) (HPC)): 1 of 6

O=C(O)c1ccc(N=NC2Sc3nc4ccccc4n3C2=O)cc1 (configuration not stated)
survivor count (dose: 240.0 mg/kg/injection, schedule: Q01DX005 (ip), vehicle: Klucel (hydroxypropylcellulose) (HPC)): 6 of 6
